Part of at least one peptide drawing is inferred or uncertain, most often the ends. Where no end group is shown, it is not given here.
Assays:
Format in all cases: physicochemical
[1] = Stability of marker solutions stored frozen at -10 to -20°C, followed by retention time at column calibration; parameters: unit not given here; conditions: stored at -10° to -20°C
Procedure: In addition, solutions of the markers were stored for up to 3 ½ months under various storage conditions (2-8 °C, -10 to -20°C, with/without azide).

[2] = Stability of markers in solution at room temperature, followed by peak retention time on chromatography; conditions: for Peak Retention Time: solution at room temperature, 0.1 mg/ml
Procedure: Stability of markers in solution - TV-markers were chromatographed four times over a period of 24 hours. All markers were kept as solutions at room temperature and were analyzed at 8 hour intervals.

[3] = Circular dichroism, molar ellipticity (Jobin-Yvon CD spectrophotometer); parameters: unit not given here
From the text: Circular dichroism - Structural similarity between the molecular weight markers and glatiramer acetate is a pre-requisite for an appropriate calibration of a molecular sizing column. Differences in polypeptide structure may result in different hydrodynamic size and consequently in altered retention time in the chromatographic system. The ellipticity, determined by circular dichroism, serves as a measure of the secondary structure of a polypeptide. When the ellipticity of the molecular weight markers and glatiramer acetate is similar, the structures of the two will be similar.
The molar ellipticity of the polypeptides was determined on a Jobin-Yvon CD spectrophotometer. […] Note that while the exact molecular weight for the TV-markers was plotted, the averace-by-number molecular weight for the glatiramer acetate was used in the plot.

Sequence: AKKYAKKEKAAKKAYKKEAKAKAAEAAAKEAAYEA [TV-35]
- RT ([1]; date of calibration 04-step-97, interval 105 days): 28.957
- RT ([1]; date of calibration 09-Jul-97, interval 48 days): 28.867
- RT ([1]; date of calibration 22-May-97, interval -): 28.857
- Peak Retention Time, Average ([2]; average of the four analyses over 24 hours, room temperature): 29.904
- Peak Retention Time ([2]; 1st of four analyses at 8 hour intervals over 24 hours): 29.883 min
- Peak Retention Time ([2]; 2nd of four analyses at 8 hour intervals): 29.883 min
- Peak Retention Time ([2]; 3rd of four analyses at 8 hour intervals): 29.900 min
- Peak Retention Time ([2]; 4th of four analyses at 8 hour intervals): 29.950 min
- M-ellip. (210nm) [3]: -1.5367

Reference: patent publication EP2239269B1, “Use of peptides derived from copolymer-1 as molecular weight markers” (YEDA RESEARCH AND DEVELOPMENT CO., LTD., priority 1998, dated 2013)
